Among all 340,000 compounds or so, about 6,200 (1.8%) were called active. The inconclusive results got no clear call from the source; some entries with a clear call stand among them for comparison. Calls come from the whole dose curve; as a rule, active = well fitted activation curve with a large enough effect; inconclusive = small, poorly fitted or top-dose-only effect; inactive = no such curve, though single readings can be large or run the other way. Potencies beside an inconclusive call are fits to weak or partial responses and may not hold up.
Assay: A quantitative high throughput screen for small molecules that induce DNA re-replication in SW480 colon adenocarcinoma cells. For re-replication activation: % of control where 0% means no effect. Note: nearly all actives have a fitted effect of over 55% in size.
Details: Hoechst DNA content imaging, 48 h; re-replication activation: at 46.1 µM (top of the series)
Outline: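 Image-based read-out: total Hoechst fluorescence of nuclei (405 nm excitation, 500-530 nm emission), with hits raising the fraction of high-intensity nuclei. SW480 colon cells incubated 48 hr with compounds at 37 C.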
Potency is the fitted concentration of half-maximal effect.

Compound | Potency | re-replication activation
O=C(Nc1ccc(Cl)cc1)Nc1ccc(N2CCCC2)c(S(=O)(=O)Nc2ccccc2Cl)c1 | inconclusive: 29.1 µM [activator, single point] | 
Clc1ccccc1-c1nnc(-c2cccnc2)o1 |  | inactive: -9.66%
CC(CNC(=O)c1cc(COc2ccc3ncccc3c2)on1)c1ccccc1 (stereo not drawn) |  | inactive: 2%
O=c1cc(-c2ccc(O)c(O)c2)oc2cc(O[C@@H]3O[C@H](CO)[C@@H](O)[C@H](O)[C@H]3O)cc(O)c12 | inconclusive: 29.1 µM [activator, single point] | 
Cc1nc(Sc2ccccc2)c(C#N)c(C)c1[N+](=O)[O-] | inconclusive: 5.8 µM [activator, full curve, poor fit] | 
CN(O)/C=c1/ccc2c(n1)C(=O)C=CC=2 | inconclusive: 20.6 µM [activator, single point] | 
Nc1nnc(-c2ccc(Cl)cc2Cl)s1 | inconclusive: 2.31 µM [activator, single point] | 
Cc1ccc(C)c(Cn2cnc3c(oc4ccccc43)c2=O)c1 | inconclusive: 0.146 µM [activator, single point] | 
CN1CCN(C(=O)/C(=C\c2cccs2)NC(=O)c2ccccc2)CC1 | inconclusive: 29.1 µM [activator, single point] | 
CCOc1cc(/C=N/NC(=O)Cn2nc([N+](=O)[O-])cc2C)cc(Br)c1OCc1ccccc1C | inconclusive: 20.6 µM [activator, single point] | 
CCC(C)NC(=O)c1nc2c(nnn2Cc2ccccc2Cl)c(=O)[nH]1 (stereo not drawn) |  | inactive: -4.61%
O=C(c1ccc2c(c1)OCO2)N(c1ccc(Cl)cc1)C1C=CS(=O)(=O)C1 (stereo not drawn) |  | inactive: 0.354%
O=C(NCc1ccccn1)C(=O)N/N=C/c1ccccc1O | inconclusive: 11.6 µM [activator, single point] | 
O=C(CN1C(=O)C2C3C=CC(C3)C2C1=O)OCC(=O)c1ccc(Cl)c([N+](=O)[O-])c1 (stereo not drawn) | inconclusive: 23.1 µM [activator, single point] | 
Cc1cccc(C)c1NC(=O)COn1nnc2ccc(C(F)(F)F)cc21 | inconclusive: 0.731 µM [activator, partial curve, poor fit] | 
Cc1c(OCc2ccccc2)c(=O)ccn1Cc1ccc(F)cc1 | inconclusive: 29.1 µM [activator, single point] | 
CC(=O)Nc1ccccc1C(F)(F)F | inconclusive: 18.4 µM [activator, single point] | 
CC1(C)C2CCC1(CS(=O)(=O)Nc1ccc(S(=O)(=O)N3CCCCC3)cc1)C(=O)C2 (stereo not drawn) | inconclusive: 4.11 µM [activator, single point] | 
CCn1nc([N+](=O)[O-])c2c(-c3nc4ccccc4o3)c(N)n(CCCOC)c2c1=O | inconclusive: 18.4 µM [activator, single point] | 
Cc1cc(C)c(S(=O)(=O)Oc2ccccc2[N+](=O)[O-])c(C)c1 | active: 20.6 µM | 
CC(CCc1ccc(O)cc1)NCCC(c1ccccc1)c1ccccc1 (stereo not drawn) | inconclusive: 25.9 µM [activator, single point] | 
CC(=O)N1N=C(c2cccc(NS(=O)(=O)c3ccc(C)cc3)c2)CC1c1ccco1 (stereo not drawn) | active: 16.4 µM | 
O=C(CSc1n[nH]c(-c2ccncc2)n1)Nc1ccccc1Cl |  | inactive: -30.3%

For convenience, 3 of the compounds above:
Compound | Potency | re-replication activation
O=c1cc(-c2ccc(O)c(O)c2)oc2cc(O[C@@H]3O[C@H](CO)[C@@H](O)[C@H](O)[C@H]3O)cc(O)c12 | inconclusive: 29.1 µM [activator, single point] | 
Cc1nc(Sc2ccccc2)c(C#N)c(C)c1[N+](=O)[O-] | inconclusive: 5.8 µM [activator, full curve, poor fit] | 
CN(O)/C=c1/ccc2c(n1)C(=O)C=CC=2 | inconclusive: 20.6 µM [activator, single point] | 

(listing goes on)

Compound | Potency | re-replication activation
Cc1sc2ncnc(OCC(=O)c3ccc(S(=O)(=O)N4CCCC4)cc3)c2c1C |  | inactive: 3.97%
CCCN(CC1CC1)c1nc(N)c2c(N)nc(OC)cc2c1C#N |  | inactive: 7.9%
O=C(NC1CC1)C1=C[C@@H](c2ccccc2)C[C@@H](OCc2ccc(CO)cc2)O1 | inconclusive: 3.66 µM [activator, single point] | 
CN(C)S(=O)(=O)c1ccc(C(=O)Nc2ccccc2F)cc1 |  | inactive: 0.53%
CN1CC(C(=O)O)Cc2c1ccc1ccccc21 (stereo not drawn) | inconclusive: 16.4 µM [activator, single point] | 
CC(C)(C)NCC(O)(c1ccc(Cl)cc1)c1ccc(Cl)cc1 | inconclusive: 32.6 µM [activator, single point] | 
O=[N+]([O-])c1ccc(C=Nc2ccc(Cl)cc2Cl)s1 | inconclusive: 23.1 µM [activator, partial curve, poor fit] | 
Cc1ccc(NS(=O)(=O)c2ccc(C(=O)NC3CCN(Cc4ccccc4)CC3)cc2)cc1 | active: 18.4 µM | 
O=C(c1ccc(=O)[nH]n1)N1CCN(S(=O)(=O)c2ccc(C(F)(F)F)cc2)CC1 |  | inactive: -2.49%
CC(=O)n1cc([C@@H]2C=C(C(=O)NCc3ccccc3)O[C@H](OCc3ccc(CO)cc3)C2)c2ccccc21 |  | inactive: -3.82%
O=C(c1ccc(Cl)cc1)c1ccc(OCC(O)CN2CCCCC2)cc1 (stereo not drawn) | inconclusive: 25.1 µM [activator, single point] | 
COc1cc(C(=O)NC2CCN(C)CC2)ccc1Nc1ncc2c(n1)N(Cc1ccccc1)CCC(=O)N2C | inconclusive: 32.6 µM [activator, partial curve, poor fit] | 
Cn1cc(C(=O)C(=O)N2CCCc3ccccc32)c2ccccc21 | inconclusive: 16.4 µM [activator, single point] | 
O=C(Nc1cccnc1)c1ccc(Cl)c([N+](=O)[O-])c1 | inconclusive: 10.3 µM [activator, partial curve, poor fit] | 
c1ccc2c(Nc3ccc4c(c3)OCCO4)c3c(nc2c1)CCC3 | inconclusive: 23.1 µM [activator, single point] | 
C=CCn1c(SCC(=O)NNC(=O)Nc2cccc(Cl)c2)nnc1-c1ccccc1 |  | inactive: -7.68%
O=C1c2ccccc2C(=O)C12Cc1ccccc1N1CCN(c3ccccc3)CC12 (stereo not drawn) | inconclusive: 16.4 µM [activator, single point] | 
O=C(Nc1ccc2[nH]c(=O)[nH]c2c1)c1ccc([N+](=O)[O-])o1 | active: 2.91 µM | 
COc1cc(NC(=O)c2ccc(C)cc2)c(OC)cc1NC(=O)CN1CCOCC1 |  | inactive: -4.16%
Cc1ccc(NC(=O)CSc2nc(-c3ccco3)cc(C(F)(F)F)n2)cc1C | active: 2.59 µM | 
COCCCNC(=O)c1ccc2c(c1)ncn2-c1ccc(C)cc1C |  | inactive: -7.5%
Cc1cc2ccccc2n1CCNC(=O)c1ccc(S(=O)(=O)N2CCOCC2)cc1 | active: 16.4 µM | 
CCOC(=O)c1nn(-c2ccccc2F)c(-c2ccccc2)c1C(=O)c1ccccc1 | inconclusive: 8.2 µM [activator, partial curve] | 

Compound | Potency | re-replication activation
Cc1ccc(CNCc2cc3c(C(C)(C)C)nn(-c4ccccc4)c3[nH]c2=O)cc1 | inconclusive: 29.1 µM [activator, single point] | 
Cc1ccc(-n2nc3c(c2NC(=O)C(C)C)CS(=O)(=O)C3)c(C)c1 | inconclusive: 6.51 µM [activator, partial curve, poor fit] | 
COc1cc2c(cc1OC)CC(C(=O)NCc1ccccc1)NC2 (stereo not drawn) |  | inactive: -6.2%
FC(F)(F)c1cc(CCN2CCNC[C@H]2Cc2cccc3ccccc23)cc(C(F)(F)F)c1 | inconclusive: 2.91 µM [activator, full curve, poor fit] | 
O=C(O)c1ccc(N=Nc2c(O)ccc3ncccc23)cc1 | active: 14.6 µM | 
COc1ccccc1N1CCN(C(=O)c2noc(C)c2[N+](=O)[O-])CC1 | inconclusive: 18.4 µM [activator, partial curve, poor fit] | 
C(=C\c1ccccn1)/c1ccccn1 | inconclusive: 23.1 µM [activator, partial curve, poor fit] | 
O=C(NNc1ccccn1)C(=O)NNS(=O)(=O)c1ccc(F)cc1 | inconclusive: 29.1 µM [activator, single point] | 
COc1ccc2oc(C(=O)OCC(=O)N3CCN(S(=O)(=O)c4ccc(C)cc4)CC3)c(C)c2c1 | inconclusive: 25.9 µM [activator, single point] | 
ON=C1/C(=N\O)CC2(C/C1=N/O)OCCO2 | inconclusive: 29.1 µM [activator, single point] | 
COc1ccc(S(=O)(=O)N2CCN(C(=O)c3cc(-c4ccc(C)cc4)n[nH]3)CC2)cc1 | inconclusive: 29.1 µM [activator, single point] | 
CCN(CC)CCCn1c2c(c(SCC(=O)Nc3nccs3)nc1=O)CCC2 | inconclusive: 5.8 µM [activator, single point] | 
CCOc1ccc2ccccc2c1C(=O)N1CCN(c2ccccc2)CC1 | inconclusive: 18.4 µM [activator, single point] | 
Nc1cccc(-c2nc3ccc(N)cc3s2)c1 | inconclusive: 29.1 µM [activator, single point] | 
CCCCn1c(N)c(N(CC(C)C)C(=O)C2CCN(S(=O)(=O)c3ccc(C)cc3)CC2)c(=O)[nH]c1=O |  | inactive: -2.48%
Nc1ccc(C(=O)Nc2ccc3cc(S(=O)(=O)O)ccc3c2)cc1 |  | inactive: -6.17%
Cc1ccc(NC(=O)NC2CC(=O)N(c3ccc4c(c3)OCCO4)C2)c(C)c1 (stereo not drawn) |  | inactive: -20.6%
O=C(Nc1nc2ccccc2s1)C1CCN(S(=O)(=O)c2cc([N+](=O)[O-])ccc2Cl)CC1 | inconclusive: 23.1 µM [activator, partial curve, poor fit] | 
Cc1cccc(/C(N)=N/OC(=O)c2ccc(Br)o2)c1 |  | inactive: -0.12%
COc1ccc(S(=O)(=O)Nc2ccc3c(c2)C(=O)N([C@H](C)CO)C[C@H](C)[C@@H](CN(C)C(=O)NC2CCCCC2)O3)cc1 |  | inactive: -3.18%
Cc1cccc(NC(=S)NCC(c2ccccc2)N(C)C)c1 (stereo not drawn) | inconclusive: 32.6 µM [activator, single point] | 
COc1cc(C(=O)NCCC(C)C)ccc1OCc1ccc(Cl)cc1Cl |  | inactive: -1.65%

By substructure: the compounds so far containing a COOH group.
Compound | Potency | re-replication activation
CN1CC(C(=O)O)Cc2c1ccc1ccccc21 (stereo not drawn) | inconclusive: 16.4 µM [activator, single point] | 
O=C(O)c1ccc(N=Nc2c(O)ccc3ncccc23)cc1 | active: 14.6 µM | 
